The values that follow come from publication PMC8915600, “Optimization of experimental conditions for skin-PAMPA measurements” (ADMET & DMPK, 2020).

This series in a line: skin-PAMPA permeability assay (gradient-pH, UPLC-DAD). Conditions: mole fraction, neutral form.

Take `COc1ccc2cc([C@H](C)C(=O)O)ccc2c1` [Naproxen]: the “RM (membrane retention)” value (with stirring, 30 min incubation) was 0.13(±0.03); the “RM (membrane retention)” value (with stirring, 4 h incubation) is recorded as 0.00; the “RM (membrane retention)” value (with stirring, 24 h incubation) was 0.00; the “RM (membrane retention)” value (without stirring, 30 min incubation) is 0.09(±0.02); the “RM (membrane retention)” value (without stirring, 4 h incubation) is on record as 0.04(±0.02); the “RM (membrane retention)” value (without stirring, 24 h incubation) is listed as 0.00.
